For the experiment, the system named is CD2F1 mice, L1210 leukemia ip, survival T/C. Nature of the experiment: NCI In Vivo Anticancer Drug Screen. Data for tumor model L1210 Leukemia (intraperitoneal) in CD2F1 (CDF1) mice. The conditions noted are these: higher T/C = longer survival. The essentials: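 Read-out first: treated-group measurement over vehicle-control measurement, expressed as a ratio. Animals bore a transplanted tumor line and were dosed with compound or vehicle.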

Setting [1] is: T/C endpoint: mean survival time, dose: 400.0 mg/kg/injection, schedule: Q04DX003 (ip), vehicle: saline with Tween-80.
Setting [2] is: T/C endpoint: mean survival time, dose: 200.0 mg/kg/injection, schedule: Q01DX009 (ip), vehicle: saline.
Where [3] appears, read: T/C endpoint: mean survival time, dose: 200.0 mg/kg/injection, schedule: Q04DX003 (ip), vehicle: saline with Tween-80.
The mark [4] stands for this setting: T/C endpoint: mean survival time, dose: 200.0 mg/kg/injection, schedule: Q01DX009 (ip), vehicle: saline with Tween-80.
[5] abbreviates: T/C endpoint: mean survival time, dose: 400.0 mg/kg/injection, schedule: Q04DX003 (ip), vehicle: saline.
[6] abbreviates: T/C endpoint: mean survival time, dose: 200.0 mg/kg/injection, schedule: Q01DX001 (ip), vehicle: saline with Tween-80.
Setting [7] is: T/C endpoint: mean survival time, dose: 400.0 mg/kg/injection, schedule: Q01DX001 (ip), vehicle: saline with Tween-80.

The list is a part of this screen's results and no random one: it is rich in T/C values a quarter to a half above the control, in often repeated tests (any T/C) and in doses without a T/C. Other doses and runs of a compound stand elsewhere. T/C is the treated group as % of the vehicle group. Some entries give survivors of the animals treated and no T/C: the source holds a T/C of zero for them, seemingly a mark for toxic or unscored doses. Some survivor counts are full or nearly so, which does not show that the dose was tolerated: the source hardly ever lists a survival T/C far under the control, and the zero likely stands for such cases as well. Survivors were counted at the toxicity check, usually on the fifth day, unless a day is given; later deaths do not show. Schedules are NCI's codes, read here as Q, the interval in days (D) or hours (H), X, the number of doses. Some structures stand for samples that the source files as different forms (salt, stereo form or complex); doses refer to the form tested. Brackets with × stand for listed records that agree. Some entries were tested several times; the values are given in rising order. For survival time, the PubChem record calls one and a half times the control and up active, and a quarter to a half above the control has no call in these data; cut-offs in other NCI protocols can differ. Some T/C values carry the count of animals alive at the toxicity check (mostly the fifth day); without a count, all were alive then.

As to `OC1CC2c3ccccc3C1c1cccc[n+]12` (stereo not given), the survivor count (T/C endpoint: mean survival time, dose: 100.0 mg/kg/injection, schedule: Q04DX003 (ip), vehicle: Klucel (hydroxypropylcellulose) (HPC)) was 6 of 6; the survivor count (T/C endpoint: mean survival time, dose: 200.0 mg/kg/injection, schedule: Q04DX003 (ip), vehicle: Klucel (hydroxypropylcellulose) (HPC)) was 2 of 6 and 3 of 6; the survivor count (T/C endpoint: mean survival time, dose: 400.0 mg/kg/injection, schedule: Q04DX003 (ip), vehicle: Klucel (hydroxypropylcellulose) (HPC)) is 0 of 6 (2×).
For the molecule `CCCCC(OC(=O)Nc1cccc2ccccc12)C(C)C` (stereo not given), under setting [1], the survivor count is recorded as 6 of 6.
As for `CCN(CC)CCNC(=O)C(O)(c1ccccc1)c1ccccc1`, the survivor count under setting [2] was 1 of 3.
Regarding `CCOC(=O)c1cccc(N(CCOS(C)(=O)=O)CCOS(C)(=O)=O)c1`, where the note is “T/C endpoint: mean survival time, dose: 400.0 mg/kg/injection, schedule: Q01DX001 (ip), vehicle: saline”, the survivor count is given as 3 of 6.
For `Clc1cccc(Cl)c1C(Nc1nncs1)Nc1nncs1`, the T/C was 131 % of control (T/C endpoint: median survival time, dose: 50.0 mg/kg/injection, schedule: Q01DX005 (ip), vehicle: saline with Tween-80); 134 % of control (T/C endpoint: median survival time, dose: 100.0 mg/kg/injection, schedule: Q01DX005 (ip), vehicle: saline with Tween-80); 148 % of control [4 of 5 alive] (T/C endpoint: median survival time, dose: 200.0 mg/kg/injection, schedule: Q01DX005 (ip), vehicle: saline with Tween-80). For the same molecule, the survivor count reads like this: (T/C endpoint: median survival time, dose: 667.0 mg/kg/injection, schedule: Q01DX005 (ip), vehicle: saline with Tween-80) 3 of 6; (T/C endpoint: median survival time, dose: 1111.0 mg/kg/injection, schedule: Q01DX005 (ip), vehicle: saline with Tween-80) 2 of 6.
`O=Cc1ccccc1O.O=Cc1ccccc1O.O=Cc1ccccc1O.[La]`: under setting [1], the survivor count is 5 of 6.
Take `NCC(OC1CCCCC1)C(Cl)(Cl)Cl` (stereo not given): the survivor count under setting [1] is recorded as 0 of 6.
Turning to `CC[N+](CC)(CC)Cc1ccccc1`, the survivor count runs as follows: (T/C endpoint: mean survival time, dose: 100.0 mg/kg/injection, schedule: Q04DX003 (ip), vehicle: saline with Tween-80) 0 of 6; under setting [3], 0 of 6; under setting [1], 0 of 6.
On to `Cc1cc(C(C(N)=O)c2ccccc2)ccc1N(CCCl)CCCl` (stereo not given), for which the T/C (T/C endpoint: mean survival time, dose: 133.0 mg/kg/injection, schedule: Q01DX001 (ip), vehicle: other) is 137 % of control. The survivor count by setting is: (T/C endpoint: mean survival time, dose: 200.0 mg/kg/injection, schedule: Q01DX001 (ip), vehicle: other) 6 of 6; (T/C endpoint: mean survival time, dose: 600.0 mg/kg/injection, schedule: Q01DX001 (ip), vehicle: other) 5 of 6.
Regarding `O=C(Nc1ccc(C2=NCCCN2)cc1)c1ccc(NC(=O)c2ccc(C3=NCCCN3)cc2)cc1`, the T/C (T/C endpoint: mean survival time, dose: 4.0 mg/kg/injection, schedule: Q01DX008 (iv), vehicle: water) was 133 % of control. The survivor count is reported as 4 of 7 (T/C endpoint: mean survival time, dose: 6.0 mg/kg/injection, schedule: Q01DX008 (iv), vehicle: water) and 0 of 7 (T/C endpoint: mean survival time, dose: 12.0 mg/kg/injection, schedule: Q01DX008 (iv), vehicle: water).
As for `O=C(CNC(=O)Nc1cccc(C(F)(F)F)c1)N/N=C/c1cc(Br)ccc1O`, under setting [4], the survivor count was 3 of 3.
Consider `O=S1(=O)CCC2CCCCC2C1` (stereo not given), for which the survivor count (T/C endpoint: mean survival time, dose: 50.0 mg/kg/injection, schedule: Q04DX003 (ip), vehicle: saline with Tween-80) was 2 of 6.
In the case of `CC(CCc1ccccc1)NC(C)C(O)c1ccc(O)cc1` (stereo not given), the survivor count is on record as 4 of 6 under setting [3] and 1 of 6 under setting [1].
As for `CC(C)C(Br)C(Br)c1ccccc1` (stereo not given), the survivor count under setting [5] is given as 5 of 6.
For `CN(C)N=Nc1ccc([N+](=O)[O-])cc1C(N)=O`, where the note is “T/C endpoint: mean survival time, dose: 300.0 mg/kg/injection, schedule: Q01DX009 (ip), vehicle: Klucel (hydroxypropylcellulose) (HPC)”, the survivor count is 6 of 6.
Consider `OC1C=C(c2ccccc2)C(c2ccccc2)C(c2ccccc2)C1` (stereo not given), for which, under setting [6], the survivor count is reported as 6 of 6.
For the molecule `O=CN(/C=C1\CC(OO)NC1=O)Cc1ccccc1` (stereo not given), the survivor count (T/C endpoint: mean survival time, dose: 300.0 mg/kg/injection, schedule: Q01DX001 (ip), vehicle: saline) was 0 of 6.
As to `C1SCC12CSC2`, the survivor count (T/C endpoint: mean survival time, dose: 100.0 mg/kg/injection, schedule: Q01DX001 (ip), vehicle: saline with Tween-80) was 0 of 3; the survivor count under setting [6] is given as 0 of 3; the survivor count under setting [7] was 0 of 3.
On to `[C-]#[N+]C(C)(CC)c1ccccc1` (stereo not given), for which the survivor count (T/C endpoint: mean survival time, dose: 55.0 mg/kg/injection, schedule: Q01DX009 (ip), vehicle: saline with Tween-80) was 1 of 6 and the survivor count (T/C endpoint: mean survival time, dose: 80.0 mg/kg/injection, schedule: Q01DX009 (ip), vehicle: saline with Tween-80) was 0 of 6.
Take `CC(C)c1cc(O)ccc1N(C)C` (tested in a mixture with another compound): the survivor count is given as 0 of 6 (T/C endpoint: mean survival time, dose: 0.5 mg/kg/injection, schedule: Q01DX001 (ip), vehicle: saline); 0 of 6 (T/C endpoint: mean survival time, dose: 1.0 mg/kg/injection, schedule: Q01DX001 (ip), vehicle: saline); 0 of 6 (T/C endpoint: mean survival time, dose: 2.0 mg/kg/injection, schedule: Q01DX001 (ip), vehicle: saline); 0 of 6 (T/C endpoint: mean survival time, dose: 3.75 mg/kg/injection, schedule: Q01DX001 (ip), vehicle: saline); 0 of 6 (T/C endpoint: mean survival time, dose: 7.5 mg/kg/injection, schedule: Q01DX001 (ip), vehicle: saline); 0 of 6 (T/C endpoint: mean survival time, dose: 15.0 mg/kg/injection, schedule: Q01DX001 (ip), vehicle: saline). Also, the survivor count is listed as 0 of 6 (T/C endpoint: mean survival time, dose: 18.8 mg/kg/injection, schedule: Q01DX001 (ip), vehicle: saline); 0 of 6 (T/C endpoint: mean survival time, dose: 37.5 mg/kg/injection, schedule: Q01DX001 (ip), vehicle: saline); 0 of 6 (T/C endpoint: mean survival time, dose: 75.0 mg/kg/injection, schedule: Q01DX001 (ip), vehicle: saline); 1 of 6 (T/C endpoint: mean survival time, dose: 250.0 micrograms/kg/injection, schedule: Q01DX001 (ip), vehicle: saline).
Take `COc1cc2c(cc1OC)C(C)=NCC2`: the survivor count is recorded as 0 of 6 (T/C endpoint: mean survival time, dose: 200.0 mg/kg/injection, schedule: Q04DX003 (ip), vehicle: saline) and 0 of 6 under setting [5].
On to `O=C1CCCCCC2=NC12` (stereo not given), for which the survivor count (T/C endpoint: median survival time, dose: 100.0 mg/kg/injection, schedule: Q01DX009 (ip), vehicle: Klucel (hydroxypropylcellulose) (HPC)) is recorded as 1 of 6.
Regarding `COc1ccc(/C=C/C(CC(NO)c2ccc(OC)cc2)=N/O)cc1` (stereo not given), the survivor count under setting [6] is on record as 3 of 3 and the survivor count under setting [7] was 3 of 3.
Regarding `C[Si](C)(C)O/C=C1\CCCCC1=O`, the survivor count under setting [4] is listed as 3 of 6.
Consider `O=NN(CCCl)C(=S)Nc1ccccc1`, for which, for the setting “T/C endpoint: mean survival time, dose: 400.0 mg/kg/injection, schedule: Q01DX001 (ip), vehicle: other”, the survivor count was 1 of 6.
In the case of `CN(C)C(=O)c1cccc(NC(=O)NCc2cccc(N3C(N)=NC(N)=NC3(C)C)c2)c1`, the survivor count (T/C endpoint: mean survival time, dose: 100.0 mg/kg/injection, schedule: Q01DX009 (ip), vehicle: saline) was 3 of 6.
As for `O=C1c2ccccc2CC1CN1CCCCC1` (stereo not given), the survivor count reads like this: (T/C endpoint: mean survival time, dose: 100.0 mg/kg/injection, schedule: Q04DX002 (ip), vehicle: saline with Tween-80) 0 of 3; (T/C endpoint: mean survival time, dose: 200.0 mg/kg/injection, schedule: Q04DX002 (ip), vehicle: saline with Tween-80) 0 of 3; (T/C endpoint: mean survival time, dose: 400.0 mg/kg/injection, schedule: Q04DX002 (ip), vehicle: saline with Tween-80) 0 of 3.
As to `c1cc(CSc2ncnc3nc[nH]c23)ccn1`, the T/C (T/C endpoint: mean survival time, dose: 600.0 mg/kg/injection, schedule: Q01DX001 (ip), vehicle: saline) is 134 % of control.
For `CCC(=O)C(C)(C)c1ccccc1` (tested in a mixture with another compound), the survivor count under setting [7] was 3 of 6.
As for `CCCc1c(C)[nH]c2ccc(C)cc12`, the survivor count reads like this: under setting [2], 3 of 6; under setting [1], 5 of 6.
`CCCCN(C)N=Nc1ccccc1C(=O)O`: the survivor count was 3 of 6 (T/C endpoint: mean survival time, dose: 100.0 mg/kg/injection, schedule: Q01DX009 (ip), vehicle: other); 0 of 6 (T/C endpoint: mean survival time, dose: 200.0 mg/kg/injection, schedule: Q01DX009 (ip), vehicle: other); 0 of 6 (T/C endpoint: mean survival time, dose: 400.0 mg/kg/injection, schedule: Q01DX009 (ip), vehicle: other).
For the molecule `Cc1nn(-c2ccc(Cl)cc2)c(C)c1N=O`, the survivor count is, setting by setting: under setting [6], 1 of 6; under setting [7], 0 of 6.

Values taken from PubChem BioAssay AID256 (DTP/NCI, 2004).
